For at least one compound, name, drawing or mass did not settle the structure.
Test system: Skin tissues from a donor
Assay: Lightness (L* value) of cultured human skin tissue with autophagy-regulating agent
Format: cell-based
Details: verapamil 10 μM, rapamycin 1 μM or HCQ 10 μM; cultured 8 days; colorimeter; FIG. 10
Description: Skin tissues were collected from a donor, and were then cultured in the presence or absence of an autophagy inducer verapamil (10 μM) or rapamycin (1 μM), or an autophagy inhibitor hydroxychloroquine (HCQ, 10 μM). After completion of the culture for 8 days, the lightness (L* value) of the cultured skin was measured with a colorimeter (Colorimeter; cyberDERM).

CO[C@H]1C[C@@H]2CC[C@@H](C)[C@@](O)(O2)C(=O)C(=O)N2CCCC[C@H]2C(=O)O[C@H]([C@H](C)C[C@@H]2CC[C@@H](O)[C@H](OC)C2)CC(=O)[C@H](C)/C=C(\C)[C@@H](O)[C@@H](OC)C(=O)[C@H](C)C[C@H](C)/C=C/C=C/C=C/1C [rapamycin]
lightness (L* value) of the cultured skin: increased

From patent publication US8927517B2, “Factors controlling skin and hair color” (Kao Corporation, priority 2012, dated 2015)
